Measured values published in US20170129957A1 (BERGENBIO ASA, published 2017).
No constants are given. Whether binding was seen depends on the method and setting. Some binding calls cover weakened binding; strength is not graded here. For some assays here: Where a sequence is shown, tags or fusion partners need not be part of it.

Sequences of proteins named here, by UniProt entry; tags and fusion partners are left off. A change or cut given only in a name is not applied to a line headed by its entry.
UniProt P30530: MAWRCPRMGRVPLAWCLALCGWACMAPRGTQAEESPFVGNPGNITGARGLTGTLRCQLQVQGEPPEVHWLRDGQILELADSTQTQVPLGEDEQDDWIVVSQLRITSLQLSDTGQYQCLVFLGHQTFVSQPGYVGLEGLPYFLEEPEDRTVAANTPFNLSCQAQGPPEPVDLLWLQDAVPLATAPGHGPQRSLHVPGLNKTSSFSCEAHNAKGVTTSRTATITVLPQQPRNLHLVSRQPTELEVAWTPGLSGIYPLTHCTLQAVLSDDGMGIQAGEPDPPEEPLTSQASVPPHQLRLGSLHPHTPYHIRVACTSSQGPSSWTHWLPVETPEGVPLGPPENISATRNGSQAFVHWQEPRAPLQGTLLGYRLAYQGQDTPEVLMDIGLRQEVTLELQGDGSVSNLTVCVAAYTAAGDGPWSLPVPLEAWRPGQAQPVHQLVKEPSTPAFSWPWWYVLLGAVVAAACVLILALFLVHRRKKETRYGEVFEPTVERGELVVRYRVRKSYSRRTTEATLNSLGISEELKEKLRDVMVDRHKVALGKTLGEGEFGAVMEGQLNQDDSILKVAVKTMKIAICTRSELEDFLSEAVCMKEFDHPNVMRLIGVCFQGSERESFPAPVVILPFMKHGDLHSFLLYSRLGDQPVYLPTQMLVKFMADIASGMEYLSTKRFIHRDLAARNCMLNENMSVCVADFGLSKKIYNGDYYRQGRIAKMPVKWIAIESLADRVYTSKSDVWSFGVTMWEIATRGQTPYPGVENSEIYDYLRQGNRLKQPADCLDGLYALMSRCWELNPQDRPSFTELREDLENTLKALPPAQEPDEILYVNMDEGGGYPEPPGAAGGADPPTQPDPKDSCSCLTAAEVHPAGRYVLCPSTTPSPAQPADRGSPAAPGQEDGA

How the values were obtained:
[1] = target: T1, recombinant human Tyro3/Dtk-Fc chimera (R&D Systems, Cat. no. 859-DK) (human) (UniProt Q06418); test: SPR (Biacore 3000), rhTyro3/Dtk-Fc immobilised on CM5 chip, rmGas6 at 10 µg/mL
T1 sequence: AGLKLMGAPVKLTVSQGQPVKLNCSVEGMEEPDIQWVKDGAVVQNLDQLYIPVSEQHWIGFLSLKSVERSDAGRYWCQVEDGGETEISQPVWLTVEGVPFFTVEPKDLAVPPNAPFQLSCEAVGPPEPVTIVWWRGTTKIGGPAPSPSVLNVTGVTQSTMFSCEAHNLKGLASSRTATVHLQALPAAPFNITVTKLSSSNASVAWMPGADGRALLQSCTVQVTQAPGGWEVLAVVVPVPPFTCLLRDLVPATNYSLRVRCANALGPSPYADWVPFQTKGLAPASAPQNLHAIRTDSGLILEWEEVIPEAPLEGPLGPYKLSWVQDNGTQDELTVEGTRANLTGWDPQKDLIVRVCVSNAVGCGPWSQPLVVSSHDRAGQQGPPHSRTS

[2] = target: T1, recombinant human Tyro3/Dtk-Fc chimera (R&D Systems, Cat. no. 859-DK) (human); test: SPR (Biacore 3000), rhTyro3/Dtk-Fc immobilised on CM5 at 1,429.0 RU, rmGas6 injected at 10 µg/mL, 25 °C [lower panel rmGas6]
[3] = target: recombinant human Axl-Fc chimera (R&D Systems, Cat. no. 154-AL) (human) (UniProt P30530); test: SPR (Biacore 3000), rhAxl-Fc immobilised on CM5 chip, rmGas6 at 10 µg/mL
[4] = target: recombinant human Axl-Fc chimera (R&D Systems, Cat. no. 154-AL) (human) (UniProt P30530); test: SPR (Biacore 3000), rhAxl-Fc immobilised on CM5 at 1,308.0 RU, rmGas6 injected at 10 µg/mL, 25 °C [lower panel rmGas6]
[5] = target: recombinant human Axl-Fc chimera (R&D Systems, Cat. no. 154-AL) (human) (UniProt P30530); test: SPR two-sample injection (Biacore 3000), rhAxl-Fc on CM5 first saturated with MAb 1H12 (270 µg/mL), then rmGas6 at 25 µg/mL

Measured: binding

B1: recombinant mouse Gas6 (R&D Systems, Cat. no. 986-GS/CF) (ligand, UniProt Q61592 46-674, looked up)
chain: AYQVFEEAKQGHLERECVEEVCSKEEAREVFENDPETEYFYPRYQECMRKYGRPEEKNPDFAKCVQNLPDQCTPNPCDKKGTHICQDLMGNFFCVCTDGWGGRLCDKDVNECVQKNGGCSQVCHNKPGSFQCACHSGFSLASDGQTCQDIDECTDSDTCGDARCKNLPGSYSCLCDEGYTYSSKEKTCQDVDECQQDRCEQTCVNSPGSYTCHCDGRGGLKLSPDMDTCEDILPCVPFSMAKSVKSLYLGRMFSGTPVIRLRFKRLQPTRLLAEFDFRTFDPEGVLFFAGGRSDSTWIVLGLRAGRLELQLRYNGVGRITSSGPTINHGMWQTISVEELERNLVIKVNKDAVMKIAVAGELFQLERGLYHLNLTVGGIPFKESELVQPINPRLDGCMRSWNWLNGEDSAIQETVKANTKMQCFSVTERGSFFPGNGFATYRLNYTRTSLDVGTETTWEVKVVARIRPATDTGVLLALVGDDDVVPISVALVDYHSTKKLKKQLVVLAVEDVALALMEIKVCDSQEHTVTVSLREGEATLEVDGTKGQSEVSTAQLQERLDTLKTHLQGSVHTYVGGLPEVSVISAPVTAFYRGCMTLEVNGKILDLDTASYKHSDITSHSCPPVEHATP
binds: all assays above
